Reference: PubChem BioAssay AID1259254 (NCATS, 2017)

- Test: 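Gene knock-downs that lead to re-replication, shown by excess G2 DNA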 (primary screen)
- Cell system: human HCT116 colorectal cancer cells
- Reagents: single siRNA against human genes
- Time to read-out: 3 days
- Measured: 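Imaged Hoechst DNA stain sorts each cell into a cycle phase by DNA amount; per plate, G2 fraction set to 0% for non-targeting and 100% for GMNN siRNA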
- Reading the numbers: G2 robust z-score: higher = more G2 cells, more excess DNA replication
- Call rule: 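Active siRNAs have a G2 robust z of 5 or more median absolute deviations over the median, which in these data means about 38% or higher of GMNN control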
Shown is an unselected part of about 59,000 reagents tested. In the full data, about 1,550 (2.6%) got an active call. 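G2 share is only a proxy for re-replication; each gene was hit by three separate siRNAs, and active genes were retested.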 The numbers tell different reagents against one gene apart. Not all columns of the deposit are shown. Not given: the amount of reagent.

LDHD (GeneID 197257) #1 — G2 robust z-score = -0.742; outcome = inactive
LDHD (GeneID 197257) #2 — G2 robust z-score = -1.22; outcome = inactive
LDHD (GeneID 197257) #3 — G2 robust z-score = 0.284; outcome = inactive
GCAT (GeneID 23464) #1 — G2 robust z-score = 2.04; outcome = inactive
GCAT (GeneID 23464) #2 — G2 robust z-score = 0.248; outcome = inactive
GCAT (GeneID 23464) #3 — G2 robust z-score = -0.719; outcome = inactive
ITGB1BP2 (GeneID 26548) #1 — G2 robust z-score = 1.83; outcome = inactive
ITGB1BP2 (GeneID 26548) #2 — G2 robust z-score = -0.211; outcome = inactive
ITGB1BP2 (GeneID 26548) #3 — G2 robust z-score = 0.202; outcome = inactive
UBXN2B (GeneID 137886) #1 — G2 robust z-score = -0.605; outcome = inactive
UBXN2B (GeneID 137886) #2 — G2 robust z-score = -1.07; outcome = inactive
UBXN2B (GeneID 137886) #3 — G2 robust z-score = -0.478; outcome = inactive
AFTPH (GeneID 54812) #1 — G2 robust z-score = -0.689; outcome = inactive
AFTPH (GeneID 54812) #2 — G2 robust z-score = 0.0811; outcome = inactive
AFTPH (GeneID 54812) #3 — G2 robust z-score = -0.558; outcome = inactive
ZFAND5 (GeneID 7763) #1 — G2 robust z-score = 0.206; outcome = inactive
ZFAND5 (GeneID 7763) #2 — G2 robust z-score = 0.655; outcome = inactive
ZFAND5 (GeneID 7763) #3 — G2 robust z-score = 1.69; outcome = inactive
TLCD3A (GeneID 79850) #1 — G2 robust z-score = -0.802; outcome = inactive
TLCD3A (GeneID 79850) #2 — G2 robust z-score = -0.383; outcome = inactive
TLCD3A (GeneID 79850) #3 — G2 robust z-score = -0.15; outcome = inactive
KCNK2 (GeneID 3776) #1 — G2 robust z-score = 1.77; outcome = inactive
KCNK2 (GeneID 3776) #2 — G2 robust z-score = 0.197; outcome = inactive
KCNK2 (GeneID 3776) #3 — G2 robust z-score = -0.63; outcome = inactive

Entries listed so far whose target name starts with K or k:
KCNK2 (GeneID 3776) #1 — G2 robust z-score = 1.77; outcome = inactive
KCNK2 (GeneID 3776) #2 — G2 robust z-score = 0.197; outcome = inactive
KCNK2 (GeneID 3776) #3 — G2 robust z-score = -0.63; outcome = inactive
